System: human isolated bronchial rings
Test: Relaxation of human isolated bronchial rings pre-contracted with acetylcholine (EC70); synergy analysis (Bliss Independence, Berenbaum)
Assay type: cell-based
Settings: 4 parameter logistic fit; mean±SD, n=5
Source text: In the laboratory, airways were dissected from connective and alveolar tissues. Then, segmental bronchi were isolated and stored overnight in KH buffer solution at refrigeration temperature. […] Bronchial rings were mounted on hooks in the organ baths where one hook was attached with threaded to a stationary rod and the other hook tied with thread to an isometric force displacement transducer. […] E/Emax was expressed as percentage of Emax elicited by the contractile agents; […] The analysis of the potential synergism between RPL554 plus muscarinic receptor antagonist was measured by applying the Berenbaum method, the Bliss Independence (BI) criterion and the Loewe Additivity (LA) model through curved isoboles (Berenbaum, 1977; Greco et al., 1995; Grabovsky and Tallarida, 2004; Tallarida, 2006; Goldoni and Johansson, 2007; Tallarida and Raffa, 2010). […] The additive response (Eab) for each dose combination with respect to B was then calculated by insertion of B into EB=f(B). The difference between the observed relaxation response to the combination doses and the additive response was calculated and analysed using a one sample t-test and for multiple comparisons, the probability was adjusted for multiple comparisons using a Bonferroni correction. For illustrative purposes, the 1:1 dose combinations were analysed for synergy. […]

SMILES | slope (nH)
COc1cc2c(cc1OC)-c1cc(=Nc3c(C)cc(C)cc3C)n(CCNC(N)=O)c(=O)n1CC2 [RPL554, 9,10-Dimethoxy-2-(2,4,6-trimethylphenylimino)-3-(N-carbamoyl-2-aminoethyl)-3,4,6,7-tetrahydro-2H-pyrimido[6,1-a]isoquinolin-4-one] | 2.271±0.713
CN1[C@@H]2CC[C@H]1C[C@@H](OC(=O)C(CO)c1ccccc1)C2 (some centres unmarked) [atropine, reference compound] | 0.912±0.488

Source: patent publication US10471063B2, “Drug combination of PDE3/PDE4 inhibitor and muscarinic receptor antagonist” (VERONA PHARMA PLC, priority 2013, dated 2019)
